Values from PubChem BioAssay AID1259254 (NCATS, 2017).
Screen: 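Genome-wide screen for genes that prevent DNA re-replication in cancer cells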 (primary screen). Cell system: human HCT116 colorectal cancer cells. Knock-down reagent: single siRNA against human genes. Duration: 3 days. Read-out: 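Imaged Hoechst DNA stain sorts each cell into a cycle phase by DNA amount; per plate, G2 fraction set to 0% for non-targeting and 100% for GMNN siRNA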. Reading the numbers: G2 robust z-score and G2 cells, % of GMNN control: higher = more G2 cells, more excess DNA replication; raw share of cells in G2: higher = larger share of cells with G2 DNA content. Rule for the call: 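An siRNA counts as active if its G2 robust z-score lies at least 5 MADs above the screen median; here such calls match roughly 38% of GMNN control or more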.
In all, the deposit lists about 59,000 reagents; below is an unselected part. About 1,550 of all reagents (2.6%) were called active. 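G2 share is only a proxy for re-replication; each gene was hit by three separate siRNAs, and active genes were retested.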 Raw values are not corrected between plates. Unmarked entries are inactive. No sequences are given here. Not given: the amount of reagent.

gene,PubChem SID,G2 robust z-score,"G2 cells, % of GMNN control",raw share of cells in G2 (%)
TEKT4,SID160758981,0.858,9,6.85
TEKT4,SID160758983,-0.209,1.49,3.37
TEKT4,SID160758984,-1.08,-4.61,1.46
SOX2,SID160717196,0.577,7.02,8.05
SOX2,SID160717197,-1.12,-4.92,2.86
SOX2,SID160717198,-0.638,-1.52,3.45
EPHX2,SID160761150,6.95 (active),51.8,25
EPHX2,SID160761161,-0.884,-3.25,2.5
EPHX2,SID160761169,-0.57,-1.04,4.86
PCDHGA3,SID160744798,8.33 (active),61.6,33.4
PCDHGA3,SID160744799,-1.46,-7.31,1.82
PCDHGA3,SID160744800,1.64,14.5,10.4
PDS5A,SID160735817,0.961,9.73,10.3
PDS5A,SID160735818,1.78,15.5,9.34
PDS5A,SID160735820,5.25 (active),39.9,17.5
LINC00636,SID160763532,2.53,20.8,11.2
LINC00636,SID160763533,-0.367,0.388,3.19
LINC00636,SID160763534,1.4,12.8,7.16
SLC41A3,SID160742566,-1.33,-6.36,1.33
SLC41A3,SID160742567,-0.508,-0.607,4.02
SLC41A3,SID160742568,5.18 (active),39.4,16.2
MXD3,SID160724592,-0.594,-1.21,3.25
MXD3,SID160751141,-0.423,-0.00531,2.79
MXD3,SID160751142,-0.33,0.647,6.2
NUP93,SID160722808,0.77,8.38,6.06
NUP93,SID160722809,1.86,16,11.3
NUP93,SID160722810,2.88,23.3,14.2
ZBED3-AS1,SID160772071,2.3,19.2,11.3
ZBED3-AS1,SID160772072,2.33,19.4,9.57
ZBED3-AS1,SID160772073,0.43,6,5.44
LOC401052 (retired record),SID160767130,-0.709,-2.02,3.07
LOC401052 (retired record),SID160767131,-1.14,-5.05,1.51
LOC401052 (retired record),SID160767132,-0.773,-2.47,3.77
CXCR3,SID160773143,-0.329,0.65,6.07
CXCR3,SID160773150,1.71,15,9.76
CXCR3,SID160773159,1.79,15.6,8.04
PCDHB7,SID160744830,1.63,14.4,9.61
PCDHB7,SID160744831,-0.798,-2.65,3.23
PCDHB7,SID160744832,-0.52,-0.689,6.13
APEX2,SID160738686,0.155,4.06,5.32
APEX2,SID160738687,6.85 (active),51.2,29.4
APEX2,SID160738689,-0.906,-3.41,3.06
OR9Q1,SID160761413,0.608,7.25,6.21
OR9Q1,SID160761414,-0.449,-0.191,3.07
OR9Q1,SID160761415,2.22,18.6,9.13
POLR1H,SID160739539,-0.517,-0.671,5.65
POLR1H,SID160739540,-0.435,-0.0929,4.21
POLR1H,SID160739541,0.195,4.34,5.46
CCDC85A,SID160755011,0.687,7.8,7.22
CCDC85A,SID160755012,-0.346,0.531,3.49
CCDC85A,SID160755013,-0.428,-0.0469,1.8
MAN2B2,SID160736009,3.82,29.9,14.1
MAN2B2,SID160736010,0.718,8.02,9.59
MAN2B2,SID160736011,-1.34,-6.46,1.99
SEC31B,SID160737328,0.884,9.19,7.87
SEC31B,SID160737329,0.722,8.05,7.42
SEC31B,SID160737330,-0.872,-3.17,2.19
DAPL1,SID160754212,-0.385,0.26,4.19
DAPL1,SID160754214,-0.377,0.313,3.1
DAPL1,SID160754215,2.91,23.5,10.4
RBM7,SID160726559,-0.106,2.22,7.35
RBM7,SID160726565,1.81,15.7,8.92
RBM7,SID160726570,5.33 (active),40.5,23.3
SLC71A1,SID160747842,-0.197,1.58,6.3
SLC71A1,SID160747843,0.891,9.23,7.61
SLC71A1,SID160747844,0.456,6.17,6.47
RXRA,SID160716255,3.93,30.6,16
RXRA,SID160716256,-0.509,-0.61,4.34
RXRA,SID160716257,-0.219,1.42,4.43
OR52B4,SID160758035,2.23,18.7,10.1
OR52B4,SID160758036,-0.184,1.67,3.43
OR52B4,SID160758037,-0.378,0.311,3.18
SLC5A2,SID160716835,0.765,8.35,6.72
SLC5A2,SID160716836,1.45,13.1,10.1
SLC5A2,SID160716837,0.141,3.96,5.91
CLVS1,SID160759566,-0.716,-2.07,2.86
CLVS1,SID160759567,-0.0512,2.61,3.83
CLVS1,SID160759568,-0.0306,2.75,3.63
PTCHD4,SID160768153,-0.36,0.432,3.79
PTCHD4,SID160768154,0.407,5.83,5.63
PTCHD4,SID160768155,-0.484,-0.441,2.97
PSMB7,SID160731573,0.986,9.9,9.01
PSMB7,SID160775090,1.11,10.8,8.73
PSMB7,SID160775102,0.621,7.34,6.65
CTSO,SID160750768,2.19,18.4,12
CTSO,SID160750780,-0.73,-2.17,4.14
CTSO,SID160750791,-0.569,-1.03,3.52

Limited to “G2 cells, % of GMNN control”, for 9 of the entries above:
MXD3 [SID160724592]	-1.21
MXD3 [SID160751141]	-0.00531
MXD3 [SID160751142]	0.647
NUP93 [SID160722808]	8.38
NUP93 [SID160722809]	16
NUP93 [SID160722810]	23.3
ZBED3-AS1 [SID160772071]	19.2
ZBED3-AS1 [SID160772072]	19.4
ZBED3-AS1 [SID160772073]	6
